Measured data: PubChem BioAssay AID720505 (Drosophila RNAi Screening Center, 2013)

- Purpose: 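Fly regulators or components of the CRAC channel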 (primary screen)
- Cells: Drosophila S2R+ cells
- Knock-down reagent: long dsRNA against Drosophila genes
- Conditions: thapsigargin (2 µM) in calcium-free buffer to empty internal stores, then 2 mM calcium added back
- Read-out: 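Fluo-4 signal in 384-well plates read on a FLIPR after thapsigargin (2 µM, calcium-free) store depletion and 2 mM calcium add-back; unnormalised mean endpoint per well; screen run twice, selected wells retested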
- Reading the numbers: calcium signal and retest calcium signal: higher = more calcium entry after store depletion
- Rule for the call: 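About 1500 genes called as lowering calcium entry, by varying amounts, judged against per-plate control wells with STIM1 as positive and Rho1 as negative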
- Calls: active = called as lowering calcium entry; inactive = not called
The screen tested about 20,000 reagents; this is a random part of those with a known target gene and a result. Of all reagents, about 2,100 (10%) were called active. 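Raw plate signals without normalisation; calls rest on control-based scores that were not deposited; replicate 2 separates called from uncalled poorly.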 Names joined by + are all predicted targets of the reagent. Not given: the amount of reagent, the time to read-out.

CG1971 [DRSC15406]
- calcium signal, replicate 1: 77.5
- calcium signal, replicate 2: 115
- Outcome: active

CG9356 [DRSC16476]
- calcium signal, replicate 1: 135
- calcium signal, replicate 2: 96.5
- Outcome: inactive

Rbm13 [DRSC17749]
- calcium signal, replicate 1: 66.5
- calcium signal, replicate 2: 209
- Outcome: active

Ing3 [DRSC20002]
- calcium signal, replicate 1: 192
- calcium signal, replicate 2: 125
- retest calcium signal, replicate 1: 97.4
- retest calcium signal, replicate 2: 104
- Outcome: inactive

BaraC [DRSC03885]
- calcium signal, replicate 1: 60.5
- calcium signal, replicate 2: 4691
- Outcome: active

CtsB [DRSC19361]
- calcium signal, replicate 1: 79.5
- calcium signal, replicate 2: 68.7
- Outcome: inactive

CG17196 [DRSC15189]
- calcium signal, replicate 1: 222
- calcium signal, replicate 2: 180
- Outcome: inactive

CG9899 [DRSC04597]
- calcium signal, replicate 1: 145
- calcium signal, replicate 2: 212
- Outcome: inactive

Arp8 [DRSC20059]
- calcium signal, replicate 1: 138
- calcium signal, replicate 2: 110
- Outcome: inactive

CG12278 [DRSC14494]
- calcium signal, replicate 1: 140
- calcium signal, replicate 2: 133
- Outcome: inactive

Zw [DRSC20303]
- calcium signal, replicate 1: 61.6
- calcium signal, replicate 2: 114
- Outcome: active

CG15322 [DRSC20680]
- calcium signal, replicate 1: 194
- calcium signal, replicate 2: 109
- Outcome: inactive

CG15322 [DRSC23023]
- calcium signal, replicate 1: 93.8
- calcium signal, replicate 2: 117
- Outcome: inactive

TwdlC [DRSC14749]
- calcium signal, replicate 1: 164
- calcium signal, replicate 2: 126
- Outcome: inactive

CG14891 [DRSC15013]
- calcium signal, replicate 1: 239
- calcium signal, replicate 2: 312
- Outcome: inactive

Mlp84B [DRSC12596]
- calcium signal, replicate 1: 127
- calcium signal, replicate 2: 179
- Outcome: inactive

CG42374 + Mettl5 [DRSC11085]
- calcium signal, replicate 1: 131
- calcium signal, replicate 2: 127
- Outcome: inactive

smog [DRSC00334]
- calcium signal, replicate 1: 121
- calcium signal, replicate 2: 91
- Outcome: inactive

smog [DRSC00335]
- calcium signal, replicate 1: 143
- calcium signal, replicate 2: 110
- Outcome: inactive

smog [DRSC23053]
- calcium signal, replicate 1: 99.8
- calcium signal, replicate 2: 123
- Outcome: inactive

CG7239 [DRSC03038]
- calcium signal, replicate 1: 129
- calcium signal, replicate 2: 158
- Outcome: inactive

CG7239 [DRSC23113]
- calcium signal, replicate 1: 120
- calcium signal, replicate 2: 143
- Outcome: inactive

CG43322 [DRSC02280]
- calcium signal, replicate 1: 190
- calcium signal, replicate 2: 73.5
- Outcome: inactive

PCB [DRSC05939]
- calcium signal, replicate 1: 229
- calcium signal, replicate 2: 198
- Outcome: inactive

CG3457 [DRSC18509]
- calcium signal, replicate 1: 135
- calcium signal, replicate 2: 144
- Outcome: inactive

CG11563 [DRSC14327]
- calcium signal, replicate 1: 79.5
- calcium signal, replicate 2: 127
- Outcome: inactive

Culd [DRSC10262]
- calcium signal, replicate 1: 98.2
- calcium signal, replicate 2: 134
- Outcome: inactive

CG6209 [DRSC06968]
- calcium signal, replicate 1: 108
- calcium signal, replicate 2: 225
- Outcome: inactive

CG32856 [DRSC13124]
- Outcome: inactive

Hexo2 [DRSC18671]
- calcium signal, replicate 1: 264
- calcium signal, replicate 2: 88.1
- Outcome: inactive

Usp8 [DRSC15876]
- calcium signal, replicate 1: 220
- calcium signal, replicate 2: 309
- Outcome: inactive

beat-IIb [DRSC14816]
- calcium signal, replicate 1: 130
- calcium signal, replicate 2: 107
- Outcome: inactive

beat-IIb [DRSC15546]
- calcium signal, replicate 1: 129
- calcium signal, replicate 2: 119
- Outcome: inactive

slbo [DRSC04716]
- calcium signal, replicate 1: 133
- calcium signal, replicate 2: 178
- retest calcium signal, replicate 1: 112
- retest calcium signal, replicate 2: 83.6
- Outcome: inactive

CG32213 + CG12519 + 825-Oak + 1 more [DRSC09615]
- calcium signal, replicate 1: 3252
- calcium signal, replicate 2: 120
- Outcome: active

Hits (from the list above):
CG1971 [DRSC15406]
- calcium signal, replicate 1: 77.5
- calcium signal, replicate 2: 115
- Outcome: active

Rbm13 [DRSC17749]
- calcium signal, replicate 1: 66.5
- calcium signal, replicate 2: 209
- Outcome: active

BaraC [DRSC03885]
- calcium signal, replicate 1: 60.5
- calcium signal, replicate 2: 4691
- Outcome: active

Zw [DRSC20303]
- calcium signal, replicate 1: 61.6
- calcium signal, replicate 2: 114
- Outcome: active

CG32213 + CG12519 + 825-Oak + 1 more [DRSC09615]
- calcium signal, replicate 1: 3252
- calcium signal, replicate 2: 120
- Outcome: active
